Assay results reported in PMC8907715.
Construct, isoform or probe ends are uncertain for at least one entry. A weaker result is weaker than the reference pair of the same experiment. At least one verdict was read from the data and is not stated in words by the source. For some assays here: Tags and fusion partners may be left off the protein sequences shown.

Amino acid sequences for entries named in this document (tags omitted). Residues count along the entry.
UniProt P05046, 33-285: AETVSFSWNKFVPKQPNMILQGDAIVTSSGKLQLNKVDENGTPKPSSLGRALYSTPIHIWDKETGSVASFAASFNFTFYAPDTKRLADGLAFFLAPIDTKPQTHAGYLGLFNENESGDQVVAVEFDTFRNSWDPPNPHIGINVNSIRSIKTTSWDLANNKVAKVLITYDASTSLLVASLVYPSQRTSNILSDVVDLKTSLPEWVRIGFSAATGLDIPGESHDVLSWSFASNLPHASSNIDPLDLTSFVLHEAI

What was measured:
[1] = biological target: T1, Bowman-Birk inhibitor (BBI) (UniProt P01055); assay: GO fluorescence assay; conditions: specificity test; commercial protein; label: 5'-FAM; single-stranded DNA
T1 sequence (looked up, limits assumed): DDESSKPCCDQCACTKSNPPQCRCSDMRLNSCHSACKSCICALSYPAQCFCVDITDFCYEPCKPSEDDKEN

[2] = biological target: Soybean agglutinin (SBA) (soybean) (UniProt P05046); assay: GO fluorescence assay; conditions: specificity test; commercial protein; label: 5'-FAM; single-stranded DNA

## CTTCGTATCCTGTGCTGCAGTTGTTTTTAAGTGCTGGGAG [Akti-5]
[1]
  binding result: binds more weakly
[2]
  binding result: binds more weakly
